According to paper PMC4523816:

Molecular target: BpfD (SO4323), full-length (Shewanella oneidensis MR-1) (UniProt Q8E9G0)
Assay: two-hybrid; bacterial two-hybrid (BacterioMatch II) in E. coli reporter cells; bait in pBT, target in pTRG; M9 salt agar with chloramphenicol and tetracycline, with or without 3-AT, 24 h at 37°C (then 16 h at room temperature if no colonies); positives confirmed on 3-AT and streptomycin

binding: binds
Substance: BpfA_(Nterm), the N terminus (∼200 a.a.) of BpfA (from UniProt Q8E9G6) (domain or fragment)

These are yes or no findings as the source states them, for the method shown. Binding calls can cover weak binding; strength is not graded here.
